{"source": "patent US20110319318A1", "about": "“COVALENT MILK PROTEIN/ISOTHIOCYANATE COMPLEXES” (NESTEC S.A., priority 2009, published 2011)", "assay": "Pungency sensory scoring by eight subjects", "assay_type": "in vivo", "details": "scale 0 to 10; 0.5 mM BLG + 0.5 or 1 mM AITC versus AITC alone; pH 7.0, heated 15 min 85° C."}
{"substance": "BLG-AITC covalent complexes: covalent complexes of β-lactoglobulin and allyl isothiocyanate, various AITC to BLG molar ratios", "values": [{"measurement": "pungency by in mouth tasting (nose-clip)", "value": "reduced significantly the pungency"}, {"measurement": "pungency by sniffing", "value": "reduced significantly the pungency"}]}
